Assay results taken from the supplement of paper PMC10849652.
The list shows a part of the results.

By UniProt entry, the sequences of proteins in these tests, tags left out. Where a name states a change or a piece, a line headed by the entry shows the natural chain unless it says otherwise.
UniProt Q96B96: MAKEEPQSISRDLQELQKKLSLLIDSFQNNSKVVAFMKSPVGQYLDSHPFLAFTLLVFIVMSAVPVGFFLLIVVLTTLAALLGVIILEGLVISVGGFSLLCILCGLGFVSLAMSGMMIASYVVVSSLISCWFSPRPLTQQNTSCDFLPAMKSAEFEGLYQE
UniProt Q8N131: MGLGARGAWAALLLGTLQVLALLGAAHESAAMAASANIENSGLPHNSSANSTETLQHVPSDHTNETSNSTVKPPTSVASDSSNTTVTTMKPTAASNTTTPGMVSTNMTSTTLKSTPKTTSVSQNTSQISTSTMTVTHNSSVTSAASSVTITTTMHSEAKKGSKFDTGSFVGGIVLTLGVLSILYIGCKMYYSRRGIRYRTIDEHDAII
UniProt Q969X1: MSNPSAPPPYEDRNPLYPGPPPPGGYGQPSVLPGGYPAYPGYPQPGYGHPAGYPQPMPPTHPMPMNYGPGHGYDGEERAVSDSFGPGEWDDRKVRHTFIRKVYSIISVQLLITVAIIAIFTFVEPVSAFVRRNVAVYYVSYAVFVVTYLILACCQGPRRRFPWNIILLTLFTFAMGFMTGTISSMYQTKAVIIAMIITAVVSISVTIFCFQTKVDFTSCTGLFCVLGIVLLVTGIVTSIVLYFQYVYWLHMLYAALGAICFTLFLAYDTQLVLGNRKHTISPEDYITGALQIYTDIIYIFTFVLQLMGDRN
UniProt Q9P0S9: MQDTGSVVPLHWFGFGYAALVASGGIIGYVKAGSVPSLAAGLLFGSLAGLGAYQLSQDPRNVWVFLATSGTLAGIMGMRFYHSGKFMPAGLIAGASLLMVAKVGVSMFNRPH
UniProt Q53S58: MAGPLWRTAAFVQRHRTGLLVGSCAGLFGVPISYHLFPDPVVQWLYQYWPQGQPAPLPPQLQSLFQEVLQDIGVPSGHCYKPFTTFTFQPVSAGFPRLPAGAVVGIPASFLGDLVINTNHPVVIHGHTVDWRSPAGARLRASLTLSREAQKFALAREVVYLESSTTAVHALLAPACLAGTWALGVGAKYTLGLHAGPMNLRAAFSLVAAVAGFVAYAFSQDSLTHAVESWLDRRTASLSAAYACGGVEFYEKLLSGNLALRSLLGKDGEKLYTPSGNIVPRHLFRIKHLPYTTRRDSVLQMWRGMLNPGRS
UniProt Q9BVV7: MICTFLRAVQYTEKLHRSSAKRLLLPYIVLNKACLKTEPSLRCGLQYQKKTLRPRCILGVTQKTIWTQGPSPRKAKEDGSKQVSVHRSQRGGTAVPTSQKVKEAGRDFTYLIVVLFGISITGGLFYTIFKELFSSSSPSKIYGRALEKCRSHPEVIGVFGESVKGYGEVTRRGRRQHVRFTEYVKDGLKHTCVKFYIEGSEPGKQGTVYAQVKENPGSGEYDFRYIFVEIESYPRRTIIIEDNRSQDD
UniProt Q9NUM4, whole entry, looked up: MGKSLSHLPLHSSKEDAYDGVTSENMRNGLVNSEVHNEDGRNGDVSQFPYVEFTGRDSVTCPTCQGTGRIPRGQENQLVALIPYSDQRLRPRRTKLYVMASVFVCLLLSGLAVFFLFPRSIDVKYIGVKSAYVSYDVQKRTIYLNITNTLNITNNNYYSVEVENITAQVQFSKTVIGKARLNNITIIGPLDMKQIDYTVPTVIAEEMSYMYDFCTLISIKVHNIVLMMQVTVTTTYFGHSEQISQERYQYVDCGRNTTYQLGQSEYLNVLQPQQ
UniProt Q9BVK8: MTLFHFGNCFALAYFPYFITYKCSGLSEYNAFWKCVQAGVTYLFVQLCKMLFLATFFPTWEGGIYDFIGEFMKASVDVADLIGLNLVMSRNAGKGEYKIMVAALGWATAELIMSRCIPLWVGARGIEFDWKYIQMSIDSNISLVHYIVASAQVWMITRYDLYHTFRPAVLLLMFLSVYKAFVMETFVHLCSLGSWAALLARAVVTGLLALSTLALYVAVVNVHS
UniProt Q8IUX1: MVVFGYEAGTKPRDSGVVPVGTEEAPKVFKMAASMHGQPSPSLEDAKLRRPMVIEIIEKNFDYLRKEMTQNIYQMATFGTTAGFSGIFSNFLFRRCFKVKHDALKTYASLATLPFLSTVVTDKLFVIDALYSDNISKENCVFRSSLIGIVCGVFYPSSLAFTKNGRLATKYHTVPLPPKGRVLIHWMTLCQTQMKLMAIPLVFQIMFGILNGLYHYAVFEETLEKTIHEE
UniProt Q9Y3A6: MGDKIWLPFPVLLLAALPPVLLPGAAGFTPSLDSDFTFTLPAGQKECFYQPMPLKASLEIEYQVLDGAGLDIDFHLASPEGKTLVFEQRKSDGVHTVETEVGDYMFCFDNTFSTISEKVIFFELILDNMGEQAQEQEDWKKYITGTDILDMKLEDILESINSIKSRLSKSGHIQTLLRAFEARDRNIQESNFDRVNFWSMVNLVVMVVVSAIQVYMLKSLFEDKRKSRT
UniProt Q96B77: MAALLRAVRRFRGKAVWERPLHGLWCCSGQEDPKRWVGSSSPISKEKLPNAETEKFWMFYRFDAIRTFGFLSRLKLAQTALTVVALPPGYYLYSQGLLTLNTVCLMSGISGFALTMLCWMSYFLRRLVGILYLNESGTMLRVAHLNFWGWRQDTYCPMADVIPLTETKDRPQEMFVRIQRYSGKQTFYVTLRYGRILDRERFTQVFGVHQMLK
UniProt Q9NVA4: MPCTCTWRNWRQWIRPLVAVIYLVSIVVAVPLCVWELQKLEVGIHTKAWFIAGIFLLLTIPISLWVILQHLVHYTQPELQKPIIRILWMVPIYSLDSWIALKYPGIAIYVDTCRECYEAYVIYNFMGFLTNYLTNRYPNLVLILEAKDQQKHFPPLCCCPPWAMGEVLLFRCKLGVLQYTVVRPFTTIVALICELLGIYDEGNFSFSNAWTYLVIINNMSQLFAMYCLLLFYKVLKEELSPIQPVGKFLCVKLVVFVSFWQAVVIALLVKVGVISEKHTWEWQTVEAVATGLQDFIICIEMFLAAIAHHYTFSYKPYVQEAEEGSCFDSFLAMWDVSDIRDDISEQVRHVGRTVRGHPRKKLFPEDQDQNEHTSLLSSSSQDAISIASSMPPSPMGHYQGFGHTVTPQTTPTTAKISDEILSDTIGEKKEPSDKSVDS
UniProt Q9BZW5, whole entry, looked up: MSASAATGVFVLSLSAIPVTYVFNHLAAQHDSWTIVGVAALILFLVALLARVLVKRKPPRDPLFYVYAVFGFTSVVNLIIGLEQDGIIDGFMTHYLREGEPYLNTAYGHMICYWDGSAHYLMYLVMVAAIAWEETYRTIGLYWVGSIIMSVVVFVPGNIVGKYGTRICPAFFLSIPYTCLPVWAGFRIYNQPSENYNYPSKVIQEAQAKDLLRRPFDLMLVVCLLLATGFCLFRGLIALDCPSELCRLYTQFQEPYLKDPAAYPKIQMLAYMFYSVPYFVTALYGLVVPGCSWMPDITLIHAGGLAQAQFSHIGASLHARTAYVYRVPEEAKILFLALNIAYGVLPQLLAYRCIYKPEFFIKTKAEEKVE
UniProt Q96EK4, whole entry, looked up: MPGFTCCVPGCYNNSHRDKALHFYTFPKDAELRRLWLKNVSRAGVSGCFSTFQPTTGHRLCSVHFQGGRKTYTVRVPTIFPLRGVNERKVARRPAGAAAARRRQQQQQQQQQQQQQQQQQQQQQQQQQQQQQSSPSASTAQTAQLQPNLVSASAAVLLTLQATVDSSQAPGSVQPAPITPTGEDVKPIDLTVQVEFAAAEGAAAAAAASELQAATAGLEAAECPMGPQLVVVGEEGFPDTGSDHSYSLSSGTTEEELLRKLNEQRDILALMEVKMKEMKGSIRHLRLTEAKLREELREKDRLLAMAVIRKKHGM
UniProt O00142: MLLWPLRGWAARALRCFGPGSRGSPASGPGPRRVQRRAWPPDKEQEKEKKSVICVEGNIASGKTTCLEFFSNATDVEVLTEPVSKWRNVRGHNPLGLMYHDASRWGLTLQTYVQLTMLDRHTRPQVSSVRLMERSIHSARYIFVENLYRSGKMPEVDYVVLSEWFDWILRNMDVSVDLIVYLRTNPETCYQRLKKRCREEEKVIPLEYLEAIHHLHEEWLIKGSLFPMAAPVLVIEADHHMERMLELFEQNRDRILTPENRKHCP
UniProt Q96AN5: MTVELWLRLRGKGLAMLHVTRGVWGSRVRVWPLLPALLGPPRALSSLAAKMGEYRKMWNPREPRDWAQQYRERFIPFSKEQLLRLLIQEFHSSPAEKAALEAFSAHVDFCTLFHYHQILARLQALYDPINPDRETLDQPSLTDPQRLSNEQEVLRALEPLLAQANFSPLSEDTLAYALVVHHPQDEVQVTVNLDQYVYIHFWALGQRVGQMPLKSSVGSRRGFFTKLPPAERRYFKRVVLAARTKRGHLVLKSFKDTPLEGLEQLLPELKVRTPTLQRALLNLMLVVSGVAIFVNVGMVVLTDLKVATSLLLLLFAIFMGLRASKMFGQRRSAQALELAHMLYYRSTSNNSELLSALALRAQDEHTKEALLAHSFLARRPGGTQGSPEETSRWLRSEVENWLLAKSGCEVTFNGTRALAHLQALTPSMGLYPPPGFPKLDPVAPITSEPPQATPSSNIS
UniProt Q9Y3Q3: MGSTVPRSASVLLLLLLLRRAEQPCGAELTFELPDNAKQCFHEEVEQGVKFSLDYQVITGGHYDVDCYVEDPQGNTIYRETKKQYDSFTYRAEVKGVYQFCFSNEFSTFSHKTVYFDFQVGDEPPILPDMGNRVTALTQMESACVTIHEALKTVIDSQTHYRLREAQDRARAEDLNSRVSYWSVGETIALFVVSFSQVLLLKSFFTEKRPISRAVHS
UniProt Q8IUC6, whole entry, looked up: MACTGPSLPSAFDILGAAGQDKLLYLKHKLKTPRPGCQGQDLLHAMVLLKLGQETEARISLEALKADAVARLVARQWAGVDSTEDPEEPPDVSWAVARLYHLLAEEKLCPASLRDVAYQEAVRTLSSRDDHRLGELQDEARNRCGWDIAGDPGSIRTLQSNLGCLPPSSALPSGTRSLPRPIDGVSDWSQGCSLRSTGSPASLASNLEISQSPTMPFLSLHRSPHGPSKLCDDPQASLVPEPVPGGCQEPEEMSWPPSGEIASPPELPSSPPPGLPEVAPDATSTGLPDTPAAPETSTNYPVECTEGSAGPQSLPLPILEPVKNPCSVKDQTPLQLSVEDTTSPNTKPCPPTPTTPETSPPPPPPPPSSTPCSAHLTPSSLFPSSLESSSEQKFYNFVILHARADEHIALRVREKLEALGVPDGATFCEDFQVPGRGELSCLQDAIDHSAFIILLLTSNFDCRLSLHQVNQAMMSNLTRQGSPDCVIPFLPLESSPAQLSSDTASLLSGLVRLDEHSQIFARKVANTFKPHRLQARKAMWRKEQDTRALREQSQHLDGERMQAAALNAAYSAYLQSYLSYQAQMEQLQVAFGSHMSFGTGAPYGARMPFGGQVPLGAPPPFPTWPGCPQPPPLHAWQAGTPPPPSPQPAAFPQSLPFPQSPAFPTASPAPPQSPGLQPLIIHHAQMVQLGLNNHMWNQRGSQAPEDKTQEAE

Key:
Experiment in all cases: log2 fold change, soluble protein after heating vs DMSO (PISA); higher = thermal stabilisation; K562 lysate, 10 uM; active = over 0.2 and 3.5 SD of the protein, either way, in both replicates (recomputed)
lapatinib = compound: CS(=O)(=O)CCNCc1ccc(-c2ccc3ncnc(Nc4ccc(OCc5cccc(F)c5)c(Cl)c4)c3c2)o1 [lapatinib]
Procedure, shortened: (§1)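 Pellets of K562 cells were dounce-homogenised in PBS pH 7.4 with 1 mM MgCl2, and the crude extract was held at 1 mg/mL protein for a 30 min treatment with 10 μM compound. Aliquots were heated for 3 min over 48°C-58°C and pooled before NP-40 was added to 0.5% at 4°C. The supernatant from 21,000xg for 90 min was quantified by TMTpro 16plex LC-MS/MS with channel sums equalised. Values are reported from duplicates as log-two fold change in thermal stability relative to solvent controls.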

pictilisib = compound: CS(=O)(=O)N1CCN(Cc2cc3nc(-c4cccc5[nH]ncc45)nc(N4CCOCC4)c3s2)CC1 [pictilisib]
Procedure, shortened: as §1

crizotinib = compound: C[C@@H](Oc1cc(-c2cnn(C3CCNCC3)c2)cnc1N)c1c(Cl)ccc(F)c1Cl [crizotinib]
Procedure, shortened: as §1

[1] = compound: C[C@H](C1=CC=C(C=C1)C(=O)NC2=C3C=CNC3=NC=C2)N
Procedure, shortened: as §1

duvelisib = compound: C[C@H](Nc1ncnc2nc[nH]c12)c1cc2cccc(Cl)c2c(=O)n1-c1ccccc1 [duvelisib]
Procedure, shortened: as §1

gandotinib = compound: Cc1cc(Nc2cc(CN3CCOCC3)c3nc(C)c(Cc4ccc(Cl)cc4F)n3n2)n[nH]1 [gandotinib]
Procedure, shortened: as §1

tozasertib = compound: Cc1cc(Nc2cc(N3CCN(C)CC3)nc(Sc3ccc(NC(=O)C4CC4)cc3)n2)n[nH]1 [tozasertib]
Procedure, shortened: as §1

doramapimod = compound: Cc1ccc(-n2nc(C(C)(C)C)cc2NC(=O)Nc2ccc(OCCN3CCOCC3)c3ccccc23)cc1 [doramapimod]
Procedure, shortened: as §1

bafetinib = compound: Cc1ccc(NC(=O)c2ccc(CN3CC[C@H](N(C)C)C3)c(C(F)(F)F)c2)cc1Nc1nccc(-c2cncnc2)n1 [bafetinib]
Procedure, shortened: as §1

[2] = compound: Cc1cccc(CC(=O)N2CCc3c2ccc(-c2cn(C)c4ncnc(N)c24)c3F)n1
Procedure, shortened: as §1

nilotinib = compound: Cc1cn(-c2cc(NC(=O)c3ccc(C)c(Nc4nccc(-c5cccnc5)n4)c3)cc(C(F)(F)F)c2)cn1 [nilotinib]
Procedure, shortened: as §1

[3] = compound: Cc1nc(Nc2n[nH]c3c2CN(C(=O)N[C@H](CN(C)C)c2ccccc2)C3(C)C)c2sccc2n1
Procedure, shortened: as §1

dasatinib = compound: Cc1nc(Nc2ncc(C(=O)Nc3c(C)cccc3Cl)s2)cc(N2CCN(CCO)CC2)n1 [dasatinib]
Procedure, shortened: as §1

[4] = compound: Cc1ncc(-c2ccnc(Nc3ccc(S(C)(=O)=O)cc3)n2)n1C(C)C
Procedure, shortened: as §1

[5] = compound: Cn1cc(-c2ccc3c(c2)CCN3C(=O)Cc2cccc(C(F)(F)F)c2)c2c(N)ncnc21
Procedure, shortened: as §1

quisinostat = compound: Cn1cc(CNCC2CCN(c3ncc(C(=O)NO)cn3)CC2)c2ccccc21 [quisinostat]
Procedure, shortened: as §1

tipifarnib = compound: Cn1cncc1[C@@](N)(c1ccc(Cl)cc1)c1ccc2c(c1)c(-c1cccc(Cl)c1)cc(=O)n2C [tipifarnib]
Procedure, shortened: as §1

[6] = compound: NC(=O)Nc1cc(-c2cccc(F)c2)sc1C(=O)N[C@H]1CCCNC1
Procedure, shortened: as §1

[7] = compound: NC(=O)c1cnc(N[C@@H]2CCCC[C@@H]2N)nc1Nc1cccc(-n2nccn2)c1
Procedure, shortened: as §1

[8] = compound: NC1(c2ccc(-c3nc4ccn5c(=O)[nH]nc5c4cc3-c3ccccc3)cc2)CCC1
Procedure, shortened: as §1

Measured: log2 fold change

TMEM159 isoform 2 (UniProt Q96B96)
inactive: lapatinib -0.011 | pictilisib -0.053 | crizotinib -0.033 | [1] -0.078 | duvelisib 0.023 | gandotinib 0.032 | tozasertib 0.056 | doramapimod -0.083 | bafetinib 0.03 | [2] 0.042 | nilotinib 0.12 | [3] 0.197 | dasatinib -0.027 | [4] 0.018 | [5] -0.003 | quisinostat 0.014 | tipifarnib 0.095 | [6] -0.057 | [7] -0.004 | [8] 0.028

TMEM123 (UniProt Q8N131)
inactive: lapatinib -0.105 | pictilisib 0.047 | [1] -0.005 | duvelisib 0.067 | gandotinib 0.033 | tozasertib 0.068 | bafetinib -0.116 | [2] -0.02 | nilotinib 0.033 | [3] -0.099 | dasatinib -0.02 | [4] -0.084 | [5] 0.038 | tipifarnib 0.038 | [7] -0.125 | [8] 0.019

TMBIM1 (UniProt Q969X1)
inactive: lapatinib 0.065 | pictilisib -0.014 | crizotinib -0.019 | [1] -0.077 | duvelisib -0.005 | gandotinib 0.038 | tozasertib 0.177 | doramapimod 0.04 | bafetinib -0.044 | [2] 0.008 | nilotinib 0.015 | [3] -0.076 | dasatinib -0.066 | [4] -0.026 | [5] 0 | quisinostat -0.067 | tipifarnib -0.006 | [6] 0.023 | [7] -0.053 | [8] -0.031

TMEM14C (UniProt Q9P0S9)
inactive: lapatinib 0.123 | pictilisib 0.162 | crizotinib -0.087 | duvelisib 0.016 | tozasertib -0.099 | doramapimod 0.002 | bafetinib -0.094 | nilotinib 0.065 | [3] -0.089 | dasatinib 0.031 | [4] 0.13 | [5] 0.029 | quisinostat -0.299 | tipifarnib -0.017 | [6] 0.029 | [7] -0.13 | [8] -0.07

TMEM177 (UniProt Q53S58)
inactive: lapatinib 0.018 | pictilisib 0.002 | crizotinib 0.053 | [1] -0.005 | gandotinib -0.125 | tozasertib -0.016 | doramapimod -0.056 | bafetinib -0.059 | [2] -0.013 | quisinostat -0.018 | [6] 0.036 | [7] 0.029 | [8] 0.067

TIMM21 (UniProt Q9BVV7)
inactive: lapatinib -0.028 | pictilisib -0.041 | crizotinib -0.07 | [1] -0.065 | duvelisib 0.023 | gandotinib 0.064 | tozasertib 0.003 | doramapimod 0.052 | bafetinib -0.046 | [2] 0.076 | nilotinib 0.037 | [3] -0.074 | dasatinib -0.029 | [4] -0.054 | [5] -0.026 | quisinostat -0.109 | tipifarnib 0.065 | [6] 0.026 | [7] 0.011 | [8] 0.023

TMEM106B (UniProt Q9NUM4)
inactive: lapatinib 0.049 | pictilisib -0.025 | crizotinib 0.006 | [1] -0.029 | duvelisib 0.059 | gandotinib -0.011 | tozasertib 0.018 | doramapimod 0.025 | bafetinib -0.008 | [2] 0.015 | nilotinib 0.002 | [3] 0 | dasatinib 0.001 | [4] 0.009 | [5] 0.149 | quisinostat -0.077 | tipifarnib 0.09 | [6] -0.019 | [7] -0.054 | [8] -0.007

TMEM147 (UniProt Q9BVK8)
inactive: lapatinib -0.089 | pictilisib 0.024 | crizotinib -0.025 | [1] -0.269 | gandotinib 0.08 | tozasertib -0.214 | doramapimod 0.123 | bafetinib -0.084 | [2] 0.175 | nilotinib -0.005 | [3] 0.031 | [4] 0.04 | quisinostat -0.245 | tipifarnib -0.162 | [6] 0.005 | [7] 0.031 | [8] 0.008

TMEM126B (UniProt Q8IUX1)
inactive: lapatinib -0.067 | pictilisib -0.076 | crizotinib -0.04 | [1] -0.057 | duvelisib 0.047 | gandotinib 0.081 | tozasertib -0.021 | doramapimod 0.029 | bafetinib -0.109 | [2] 0.099 | nilotinib 0.024 | [3] -0.022 | dasatinib 0.042 | [4] 0.026 | [5] -0.016 | quisinostat 0.084 | tipifarnib 0.07 | [6] -0.06 | [7] 0.034 | [8] 0.018

TMED5 (UniProt Q9Y3A6)
inactive: lapatinib -0.059 | pictilisib 0.001 | crizotinib 0.072 | [1] -0.015 | duvelisib 0.019 | gandotinib -0.033 | tozasertib 0.016 | doramapimod -0.055 | bafetinib -0.017 | [2] 0.004 | nilotinib 0.012 | [3] -0.007 | dasatinib -0.063 | [4] 0.014 | [5] -0.013 | quisinostat 0.131 | tipifarnib -0.034 | [6] 0 | [7] 0.039 | [8] 0.006

TMEM186 (UniProt Q96B77)
inactive: lapatinib 0.007 | pictilisib 0.005 | crizotinib -0.025 | [1] 0.184 | duvelisib 0.035 | gandotinib -0.149 | tozasertib -0.049 | doramapimod 0.028 | bafetinib -0.095 | [2] -0.179 | nilotinib 0.032 | [3] 0.026 | dasatinib 0.057 | [4] -0.058 | [5] -0.086 | quisinostat 0.029 | tipifarnib 0.057 | [6] 0.017 | [7] -0.056 | [8] -0.025

TMEM184C (UniProt Q9NVA4)
inactive: lapatinib 0.077 | pictilisib 0.069 | crizotinib 0.035 | duvelisib -0.001 | tozasertib 0.057 | doramapimod -0.064 | bafetinib -0.051 | nilotinib -0.014 | [3] 0.095 | dasatinib 0.015 | [4] -0.001 | [5] 0.074 | quisinostat 0.004 | tipifarnib 0.006 | [6] -0.009 | [7] -0.045 | [8] -0.05

Taken from above (5 entries):
TMEM177 (UniProt Q53S58)
inactive: lapatinib 0.018 | pictilisib 0.002 | crizotinib 0.053 | [1] -0.005 | gandotinib -0.125 | tozasertib -0.016 | doramapimod -0.056 | bafetinib -0.059 | [2] -0.013 | quisinostat -0.018 | [6] 0.036 | [7] 0.029 | [8] 0.067

TIMM21 (UniProt Q9BVV7)
inactive: lapatinib -0.028 | pictilisib -0.041 | crizotinib -0.07 | [1] -0.065 | duvelisib 0.023 | gandotinib 0.064 | tozasertib 0.003 | doramapimod 0.052 | bafetinib -0.046 | [2] 0.076 | nilotinib 0.037 | [3] -0.074 | dasatinib -0.029 | [4] -0.054 | [5] -0.026 | quisinostat -0.109 | tipifarnib 0.065 | [6] 0.026 | [7] 0.011 | [8] 0.023

TMEM106B (UniProt Q9NUM4)
inactive: lapatinib 0.049 | pictilisib -0.025 | crizotinib 0.006 | [1] -0.029 | duvelisib 0.059 | gandotinib -0.011 | tozasertib 0.018 | doramapimod 0.025 | bafetinib -0.008 | [2] 0.015 | nilotinib 0.002 | [3] 0 | dasatinib 0.001 | [4] 0.009 | [5] 0.149 | quisinostat -0.077 | tipifarnib 0.09 | [6] -0.019 | [7] -0.054 | [8] -0.007

TMEM147 (UniProt Q9BVK8)
inactive: lapatinib -0.089 | pictilisib 0.024 | crizotinib -0.025 | [1] -0.269 | gandotinib 0.08 | tozasertib -0.214 | doramapimod 0.123 | bafetinib -0.084 | [2] 0.175 | nilotinib -0.005 | [3] 0.031 | [4] 0.04 | quisinostat -0.245 | tipifarnib -0.162 | [6] 0.005 | [7] 0.031 | [8] 0.008

TMEM126B (UniProt Q8IUX1)
inactive: lapatinib -0.067 | pictilisib -0.076 | crizotinib -0.04 | [1] -0.057 | duvelisib 0.047 | gandotinib 0.081 | tozasertib -0.021 | doramapimod 0.029 | bafetinib -0.109 | [2] 0.099 | nilotinib 0.024 | [3] -0.022 | dasatinib 0.042 | [4] 0.026 | [5] -0.016 | quisinostat 0.084 | tipifarnib 0.07 | [6] -0.06 | [7] 0.034 | [8] 0.018

The results go on:

TM6SF1 (UniProt Q9BZW5)
inactive: lapatinib 0.05 | pictilisib -0.089 | crizotinib 0.096 | [1] -0.133 | duvelisib 0.045 | gandotinib 0.003 | tozasertib 0.041 | doramapimod 0.042 | bafetinib -0.075 | [2] 0.065 | dasatinib 0.036 | [5] -0.052 | quisinostat 0 | [6] 0.124 | [7] 0.036 | [8] 0.029

THAP11 (UniProt Q96EK4)
inactive: lapatinib 0.051 | pictilisib 0.088 | [1] 0.078 | duvelisib -0.001 | gandotinib 0.169 | tozasertib -0.024 | bafetinib 0.057 | [2] 0.024 | nilotinib -0.011 | [3] -0.284 | dasatinib -0.034 | [4] -0.075 | [5] 0.106 | tipifarnib 0.044 | [7] -0.003 | [8] -0.022

TK2 isoform 6 (UniProt O00142)
inactive: lapatinib -0.065 | pictilisib 0.034 | crizotinib -0.06 | [1] 0.022 | duvelisib 0.075 | gandotinib 0.075 | tozasertib 0.032 | doramapimod 0.061 | bafetinib -0.143 | [2] 0.061 | dasatinib -0.083 | [5] 0.014 | quisinostat 0.035 | [6] -0.097 | [7] 0.061 | [8] -0.058

TMEM143 (UniProt Q96AN5)
inactive: lapatinib 0.027 | crizotinib -0.011 | [1] 0.102 | duvelisib -0.236 | gandotinib 0.134 | tozasertib 0.011 | doramapimod -0.111 | [2] 0.068 | nilotinib 0.153 | [3] -0.103 | dasatinib 0.543 | [4] 0.169 | [5] -0.023 | quisinostat 0.131 | tipifarnib -0.046 | [6] -0.017 | [7] 0.079

TMED3 (UniProt Q9Y3Q3)
inactive: lapatinib 0.052 | pictilisib 0.061 | crizotinib 0.008 | [1] -0.026 | gandotinib -0.049 | doramapimod -0.032 | bafetinib 0.151 | [2] 0.105 | quisinostat 0.031 | [6] 0.021 | [7] -0.12 | [8] -0.044

TICAM1 (UniProt Q8IUC6)
inactive: lapatinib 0.019 | pictilisib 0.03 | crizotinib -0.091 | [1] -0.153 | duvelisib 0.026 | gandotinib 0.139 | doramapimod -0.013 | bafetinib -0.035 | [2] 0.077 | nilotinib 0.069 | [3] 0.016 | dasatinib 0.003 | [4] -0.047 | [5] -0.252 | quisinostat -0.044 | tipifarnib -0.014 | [6] 0.076 | [7] 0.031 | [8] 0.191
